# Values of other authors as cited in patent publication US9194862B2, “Compositions and methods for determining cancer stem cell self-renewal potential” (THE REGENTS OF THE UNIVERSITY OF CALIFORNIA, priority 2009, dated 2015).
# Some entries share one result that the patent states for a list of compounds.
# What was measured:
# Bcl-w = target: T1, Bcl-w (Homo sapiens, UniProt Q92843); settings: cited from earlier work
# T1 sequence (Q92843 1-193): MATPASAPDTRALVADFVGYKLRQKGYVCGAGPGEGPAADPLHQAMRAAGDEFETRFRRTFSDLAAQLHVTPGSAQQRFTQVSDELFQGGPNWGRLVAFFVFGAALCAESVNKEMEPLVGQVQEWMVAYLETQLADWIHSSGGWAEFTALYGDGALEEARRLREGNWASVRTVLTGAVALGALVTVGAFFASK
# Bcl-b = target: T2, Bcl-b (Homo sapiens, UniProt Q9HD36); settings: cited from earlier work
# T2 sequence (Q9HD36 1-204): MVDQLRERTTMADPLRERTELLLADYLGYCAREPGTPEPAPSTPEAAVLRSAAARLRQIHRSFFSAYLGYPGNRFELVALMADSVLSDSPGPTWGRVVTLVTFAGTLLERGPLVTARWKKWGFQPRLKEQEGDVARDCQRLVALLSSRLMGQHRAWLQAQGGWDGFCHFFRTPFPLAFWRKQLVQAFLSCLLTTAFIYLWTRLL
smiles,measurement,setting,value
Cc1cc2c(C(C)C)c(O)c(O)cc2c(O)c1-c1c(C)cc2c(C(C)C)c(O)c(O)cc2c1O [apogossypol],IC50,Bcl-w,< 10 µM
same,IC50,Bcl-b,< 10 µM
